Source: paper PMC8791637

Target: His6-sumo-kindlin
Experiment: pull-down; His6-sumo-kindlin (100 uL of 10 uM) held on Ni-NTA resin in spin columns; 10 uM Cas or pCas added, 2 hr at 4 C; 20 mM Tris pH 7.5, 150 mM NaCl, 10 mM imidazole; eluted with 300 mM imidazole; SDS-PAGE, Coomassie; both purified

binding: binds
B1: unphosphorylated p130Cas (protein, UniProt Q61140 1-874)
chain: MTVPNVLAKALYDNVAESPDELSFRKGDIMTVLERDTQGLDGWWLCSLHGRQGIVPGNRLKILVGMYDKKPVGPGPGPPATPPQPQPSLPQGVHAPVPPASQYSPMLPTAYQPQSDNVYLVPTPSKTQQGLYQAPGPNPQFQSPPAKQTSTFSKQTPHHSFPSPATDLYQVPPGPGSPAQDIYQVPPSAGIGHDIYQVPPSLDTRGWEGTKPPAKVVVPTRVGQGYVYEAAQTEQDEYDTPRHLLAPGPQDIYDVPPVRGLLPNQYGQEVYDTPPMAVKGPNGRDPLLDVYDVPPSVEKGLLSSSHHSVYDVPPSVSKDVPDGPLLREETYDVPPAFAKPKPFDPTRHPLILAAPPPDSPAAEDVYDVPPPAPDLYDVPPGLRRPGPGTLYDVPRERVLPPEVADGSVVDDGVYAVPPPAEREAPTDGKRLSASSTGSTRSSQSASSLEVVVPGREPLELEVAVESLARLQQGVSTTVAHLLDLVGSASGPGGWRGTSEPQEPPAQDLKAAVAAVHGAVHELLEFARGAVSNATHTSDRTLHAKLSRQLQKMEDVYQTLVVHGQVLDSGRGSPGFTPEDLDRLVACSRAVPEDAKQLASFLHGNASLLFRRTKAPGPGPEGSSSLHPNPTDKASSIQSRPLPSPPKFTSQDSPDGQYENSEGGWMEDYDYVHLQGKEEFEKTQKELLERGNIMRQGKGQLELQQLKQFERLEQEVSRPIDHDLANWTPAQPLVPGRTGGLGPSDRQLLLFYLEQCEANLTTLTDAVDAFFTAVATNQPPKIFVAHSKFVILSAHKLVFIGDTLSRQAKAADVRSQVTHYSNLLCDLLRGIVATTKAAALQYPSPSAAQDMVDRVKELGHSTQQFRRVLGQLAAA

These are yes or no findings as the source states them, for the method shown. Binding can be weak; no strength is given.
